Measured data: PubChem BioAssay AID504744 (Drosophila RNAi Screening Center, 2011)
The deposit covers about 23,000 reagents; this is a random part of those with a known target gene and a result. In the full data, 98 (0.43%) are marked active. 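Only hit calls are given; the phospho-dAkt signals, z-scores and hit direction were not deposited.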 The numbers tell different reagents against one gene apart. A plus sign joins genes that one reagent is predicted to hit.

Assay: 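Find genes whose loss alters insulin-driven dAkt phosphorylation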 (primary screen)
Cells: Drosophila Kc167 cells
Reagents: long dsRNA against Drosophila genes, 250 ng dsRNA per well of a 384-well plate
Time to read-out: 3 days of knock-down, then overnight serum-free starvation before stimulation
Conditions: bovine insulin at 387 nM for 10 minutes after 12 h without serum
Detection: 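In-cell antibody fluorescence for phospho-dAkt in each well over DNA-dye signal, with log2 residuals expressed as z-scores adjusted for cell count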
Call rule: 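Under insulin, a gene counts as a hit if the average z-score of two replicates lies above 2.5 or below -2.5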

no.	Target gene	reagent no.	call
1	dpr3 (GeneID 3346208)	1	inactive
2	dpr3 (GeneID 3346208)	2	inactive
3	dpr3 (GeneID 3346208)	3	inactive
4	CG11122 (GeneID 32046)	1	inactive
5	abd-A (GeneID 42037)	1	inactive
6	abd-A (GeneID 42037)	2	inactive
7	e(y)3 (GeneID 32965)	1	inactive
8	pot (GeneID 32154)	1	inactive
9	tsl (GeneID 42564)	1	inactive
10	Slimp (GeneID 318604)	1	inactive
11	CG8958 (GeneID 32575)	1	inactive
12	Bbd (GeneID 37314)	1	inactive
13	Hr38 (GeneID 35332)	1	inactive
14	CG9514 (GeneID 32418)	1	inactive
15	CG9514 (GeneID 32418)	2	inactive
16	Tsr1 (GeneID 40360)	1	inactive
17	CG6432 (GeneID 42901)	1	inactive
18	CG1371 (GeneID 36053)	1	inactive
19	CG30050 (GeneID 246417)	1	inactive
20	Arr2 (GeneID 38993)	1	inactive
21	CG11333 (GeneID 43714)	1	inactive
22	CG10413 (GeneID 35111)	1	inactive
23	Sgsh (GeneID 42266)	1	inactive
24	CG1394 (GeneID 32059)	1	inactive
25	Cubn (GeneID 326235)	1	inactive
26	Pif1A + Pif1B	1	inactive
27	Pif1A + Pif1B	2	inactive
28	Pif1A + Pif1B	3	inactive
29	CG10970 (GeneID 31830)	1	inactive
30	puml (GeneID 35733)	1	inactive
31	LpR2 (GeneID 43105)	1	inactive
32	LpR2 (GeneID 43105)	2	inactive
33	LpR2 (GeneID 43105)	3	inactive
34	LpR2 (GeneID 43105)	4	inactive
35	mbc (GeneID 42817)	1	inactive
36	5-HT1B (GeneID 37191)	1	inactive
37	5-HT1B (GeneID 37191)	2	inactive
38	bisc (GeneID 37443)	1	inactive
39	glob3 (GeneID 40726)	1	inactive
40	CG16719 (GeneID 39131)	1	inactive
41	RpL29 (GeneID 37430)	1	inactive
42	RPA3 (GeneID 32113)	1	inactive
43	DIP2 (GeneID 252479)	1	inactive
44	CG6171 (GeneID 41872)	1	inactive
45	Dbct (GeneID 32441)	1	inactive
46	cl (GeneID 43938)	1	inactive
47	Uba4 (GeneID 34187)	1	inactive
48	p115 (GeneID 31698)	1	inactive
49	CG33627 (GeneID 3772219)	1	inactive
50	GCC88 (GeneID 41350)	1	inactive
51	Cyp318a1 (GeneID 32172)	1	inactive
52	CG42565 (GeneID 37598)	1	inactive
53	Tango14 (GeneID 33298)	1	inactive
54	Sdhaf3 (GeneID 42004)	1	inactive
55	Cpr30B (GeneID 34270)	1	inactive
56	CG14817 (GeneID 31145)	1	inactive
57	Ilp4 (GeneID 39152)	1	inactive
58	CG13069 (GeneID 50271)	1	inactive
59	for (GeneID 44817)	1	inactive
60	for (GeneID 44817)	2	inactive
61	BTBD9 (GeneID 32000)	1	inactive
62	BTBD9 (GeneID 32000)	2	inactive
63	CG2931 (GeneID 40673)	1	inactive
64	FarO (GeneID 45707)	1	inactive
65	CheA46a (GeneID 3772338)	1	inactive
66	CG10195 (GeneID 35228)	1	inactive
67	mRpL32 (GeneID 43698)	1	inactive
68	CG16798 (GeneID 35308)	1	inactive
69	CG7600 (GeneID 39267)	1	inactive
70	CG5334 (GeneID 32402)	1	inactive
71	tgo (GeneID 41084)	1	inactive
72	l(2)gd1 (GeneID 34543)	1	inactive
73	CG12723 (GeneID 32271)	1	inactive
74	CG17917 (GeneID 40778)	1	inactive
75	aru (GeneID 33268)	1	inactive
76	aru (GeneID 33268)	2	inactive
77	Myo10A (GeneID 32028)	1	inactive
78	Myo10A (GeneID 32028)	2	inactive
79	Polr3B (GeneID 36289)	1	inactive
80	CG6980 (GeneID 42955)	1	inactive
81	CG4313 (GeneID 31169)	1	inactive
82	synr (GeneID 33702)	1	inactive
83	Tcs3 (GeneID 39811)	1	inactive
84	Jon74E (GeneID 39959)	1	inactive
85	CG12209 (GeneID 36077)	1	inactive
86	pho (GeneID 43819)	1	inactive
87	hep (GeneID 32256)	1	inactive
88	hep (GeneID 32256)	2	inactive
89	mthl6 (GeneID 38839)	1	inactive
90	Xrp1 (GeneID 42267)	1	inactive
91	Xrp1 (GeneID 42267)	2	inactive
92	CG7632 (GeneID 40357)	1	inactive
93	CG18622 (GeneID 42044)	1	inactive
94	Miga (GeneID 31775)	1	inactive
95	bnk (GeneID 43687)	1	inactive
96	CG42490 (retired record) (GeneID 8674118)	1	inactive
97	beag (GeneID 41091)	1	inactive
98	Cyp6d5 (GeneID 41706)	1	inactive
99	mTerf5 (GeneID 42182)	1	inactive
100	CG31821 (GeneID 34938)	1	inactive
101	ScpX (GeneID 44183)	1	inactive
102	Tsp42Ep (GeneID 35626)	1	inactive
103	CAH3 (GeneID 31804)	1	inactive
104	CG11342 (GeneID 38538)	1	inactive
105	Lkr (GeneID 38622)	1	inactive
106	CG7857 (GeneID 39671)	1	inactive
107	CG33116 (GeneID 326259)	1	inactive
108	CG15577 (GeneID 50378)	1	inactive
109	Sgs1 (GeneID 33701)	1	inactive
110	Sgs1 (GeneID 33701)	2	inactive
111	CG15042 (GeneID 32844)	1	inactive
112	cyp33 (GeneID 36984)	1	inactive
113	CG13359 (GeneID 31028)	1	inactive
114	RpL8 (GeneID 44251)	1	inactive
115	RpL8 (GeneID 44251)	2	inactive
116	Cont (GeneID 40553)	1	inactive
117	CG33111 (GeneID 50068)	1	inactive
118	CG33111 (GeneID 50068)	2	inactive
119	CG32459 (GeneID 40502)	1	inactive
120	CG13405 (GeneID 38016)	1	inactive
121	Or24a (GeneID 33623)	1	inactive
122	CG14764 (GeneID 35749)	1	inactive
123	CG14764 (GeneID 35749)	2	inactive
124	CG14764 (GeneID 35749)	3	inactive
125	pncr003:2L (retired record) (GeneID 3772689)	1	inactive
126	CG15721 (GeneID 32247)	1	inactive
127	CG14971 (GeneID 38429)	1	inactive
128	Bcat (GeneID 32297)	1	inactive
129	Or33c (GeneID 34603)	1	inactive
130	CG3502 + CG9863	1	inactive
131	CG15877 (GeneID 38304)	1	inactive
132	CG10947 (GeneID 35309)	1	inactive
133	CG15403 (GeneID 33527)	1	inactive
134	mtgo (GeneID 34987)	1	inactive
135	mtgo (GeneID 34987)	2	inactive
136	mtgo (GeneID 34987)	3	inactive
137	mtgo (GeneID 34987)	4	inactive
138	mtgo (GeneID 34987)	5	inactive
139	CG13599 (GeneID 42829)	1	inactive
140	CG8051 (GeneID 32925)	1	inactive
141	Samtor (GeneID 37934)	1	inactive
142	Grip75 (GeneID 34441)	1	inactive
143	CG3337 (GeneID 42519)	1	inactive
144	tow (GeneID 38755)	1	inactive
145	CG3281 (GeneID 41445)	1	inactive
146	arr (GeneID 44279)	1	inactive
147	Syp (GeneID 42460)	1	inactive
148	Syp (GeneID 42460)	2	inactive
149	RpL24-like (GeneID 41372)	1	inactive
150	MED22 (GeneID 31038)	1	inactive
151	CG34417 (GeneID 31591)	1	inactive
152	CG34417 (GeneID 31591)	2	inactive
153	CG34417 (GeneID 31591)	3	inactive
154	CG1812 (GeneID 33049)	1	inactive
155	CG13113 (GeneID 34271)	1	inactive
156	CG5342 (GeneID 41389)	1	inactive
157	CG31051 (GeneID 261634)	1	inactive
158	Rok (GeneID 43916)	1	inactive
159	kirre (GeneID 31292)	1	inactive
160	CG5250 (GeneID 42308)	1	inactive
161	CG13850 (GeneID 42630)	1	inactive
162	Ctu2 (GeneID 35234)	1	inactive
163	Thor (GeneID 33569)	1	inactive
164	CG31100 (GeneID 41075)	1	inactive
165	CG31100 (GeneID 41075)	2	inactive
166	CG31008 (GeneID 318554)	1	inactive
167	CG7202 (GeneID 40376)	1	inactive
168	Psa (GeneID 38175)	1	inactive
169	PPO1 (GeneID 37044)	1	inactive
170	alc (GeneID 35931)	1	inactive
171	alc (GeneID 35931)	2	inactive
172	Qsox4 (GeneID 318720)	1	inactive
173	CG1504 (GeneID 33028)	1	inactive
174	Rpn13 (GeneID 36545)	1	inactive
175	Spt3 (GeneID 41461)	1	inactive
176	CG10035 (GeneID 41511)	1	inactive
177	CG18004 (GeneID 36154)	1	inactive
178	CG5021 (GeneID 39025)	1	inactive
179	Mgat4b (GeneID 39609)	1	inactive
180	Or45b (GeneID 35980)	1	inactive
181	eIF3b (GeneID 36981)	1	inactive
182	CG42319 (GeneID 36473)	1	inactive
183	CG42319 (GeneID 36473)	2	inactive
184	CG42319 (GeneID 36473)	3	inactive
185	CG30288 (GeneID 246531)	1	inactive
186	Nepl21 (GeneID 43413)	1	inactive
187	lt (GeneID 3355130)	1	inactive
188	Dhc98D (GeneID 43379)	1	inactive
189	Schip1 (GeneID 34393)	1	inactive
190	Prosbeta5 (GeneID 45269)	1	inactive
191	Ac78C (GeneID 40333)	1	inactive
192	Ac78C (GeneID 40333)	2	inactive
193	Ac78C (GeneID 40333)	3	inactive
194	Gp210 (GeneID 35512)	1	inactive
195	Gp210 (GeneID 35512)	2	inactive
196	EMC10 (GeneID 40396)	1	inactive
197	CG11619 (GeneID 40072)	1	inactive
198	pic (GeneID 41611)	1	inactive
199	rl (GeneID 3354888)	1	inactive
200	rl (GeneID 3354888)	2	inactive
201	rl (GeneID 3354888)	3	inactive

Copied from above (23 entries):
no.	Target gene	reagent no.	call
79	Polr3B (GeneID 36289)	1	inactive
80	CG6980 (GeneID 42955)	1	inactive
81	CG4313 (GeneID 31169)	1	inactive
82	synr (GeneID 33702)	1	inactive
83	Tcs3 (GeneID 39811)	1	inactive
84	Jon74E (GeneID 39959)	1	inactive
85	CG12209 (GeneID 36077)	1	inactive
86	pho (GeneID 43819)	1	inactive
87	hep (GeneID 32256)	1	inactive
88	hep (GeneID 32256)	2	inactive
89	mthl6 (GeneID 38839)	1	inactive
90	Xrp1 (GeneID 42267)	1	inactive
91	Xrp1 (GeneID 42267)	2	inactive
92	CG7632 (GeneID 40357)	1	inactive
93	CG18622 (GeneID 42044)	1	inactive
94	Miga (GeneID 31775)	1	inactive
95	bnk (GeneID 43687)	1	inactive
96	CG42490 (retired record) (GeneID 8674118)	1	inactive
97	beag (GeneID 41091)	1	inactive
98	Cyp6d5 (GeneID 41706)	1	inactive
99	mTerf5 (GeneID 42182)	1	inactive
100	CG31821 (GeneID 34938)	1	inactive
101	ScpX (GeneID 44183)	1	inactive
